Assay: Interference of test compounds with DiBAC4(3) fluorescence in the absence of cells
Conditions: cell-free conditions

Compound: CCCCc1oc2ccccc2c1C(=O)c1cc(I)c(OCCN(CC)CC)c(I)c1 [amiodarone]
- concentration at which the compound interferes with / reduces the DiBAC4(3) fluorescence: greater than or equal to 1 μM
- concentration at which the compound interferes with / reduces the DiBAC4(3) fluorescence (listed as Amiodarone): ≥ 1 µM

Source: patent US8323911B2, “High throughput assay for discovering new inhibitors of the GIRK1/4 channel” (University of South Carolina, priority 2010, dated 2012)
